# Laboratory results as given in PMC11143236.
# B1: ZDHHC20 (in the cell lysate of the GST pull-down) (enzyme, UniProt Q5W0Z9 1-365)
# chain: MAPWTLWRCCQRVVGWVPVLFITFVVVWSYYAYVVELCVFTIFGNEENGKTVVYLVAFHLFFVMFVWSYWMTIFTSPASPSKEFYLSNSEKERYEKEFSQERQQEILRRAARALPIYTTSASKTIRYCEKCQLIKPDRAHHCSACDSCILKMDHHCPWVNNCVGFSNYKFFLLFLLYSLLYCLFVAATVLEYFIKFWTNELTDTRAKFHVLFLFFVSAMFFISVLSLFSYHCWLVGKNRTTIESFRAPTFSYGPDGNGFSLGCSKNWRQVFGDEKKYWLLPIFSSLGDGCSFPTRLVGMDPEQASVTNQNEYARSSGSNQPFPIKPLSESKNRLLDSESQWLENGAEEGIVKSGTNNHVTVAIEN
# What was measured:
# [1] = target: GST-YTHDF3 N-terminal domain; test: pull-down; GST-YTHDF3 fragments from E. coli BL21 on Glutathione-Sepharose beads, incubated with cell lysate at 4 °C overnight, washed six times, western blot for ZDHHC20; only the target purified
# [2] = target: GST-YTHDF3 C-terminal domain; test: as above
binder,measurement,setting,value
B1,binding,[1],no binding
same,binding,[2],binds

# These are yes or no findings as the source states them, for the method shown. In cells and extracts the contact can be indirect. For some assays here: Binding can be weak; no strength is given. Tags and fused reporters may be left off the sequences shown.
